{"source": "PubChem BioAssay AID504791 – Drosophila RNAi Screening Center | 2011", "assay": "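Genes whose knock-down strengthens or weakens small-RNA reporter silencing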 (primary screen)", "cells": "Drosophila S2-derived reporter cells", "knock-down reagent": "long dsRNA against Drosophila genes, about 150-250 ng dsRNA per well (siRNA assay); about 80-120 ng (miRNA assay)", "duration": "about 5 days (siRNA assay); about 4 days (miRNA assay)", "treatment": "copper sulfate induction of reporters: 25 µM (siRNA assay); 200 mM stated (miRNA assay), 1-2 days before reading", "read-out": "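Per-well ratio of Renilla over firefly light, expressed relative to that plate's average ratio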", "units": "stable assay Renilla, run 1 in luminescence; stable assay firefly, run 1 in luminescence", "call rule": "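a well was a first-pass pick when its plate-scaled ratio rose above 1.5 (siRNA assay) or 1.6 (miRNA assay), or dropped below 0.6; a gene counted only if two separate dsRNAs agreed on retest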", "note": "The screen tested about 23,000 reagents; this is an unselected part of those that have a named target and a result. Over the whole deposit, 199 (0.86%) are marked active. 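Plate-scaled ratios behind the calls are not deposited; printed light signals are raw; many rows marked increased or decreased are still called inactive.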 No sequences are given here. The record does not give: the direction of the score."}
{"gene": "CG4972", "dsRNA": "DRSC02798", "stable assay Renilla, run 1": 8447, "stable assay firefly, run 1": 4.51e5, "activity call": "inactive"}
{"gene": "Rh2", "dsRNA": "DRSC16821", "stable assay Renilla, run 1": 7907, "stable assay firefly, run 1": 4.14e5, "activity call": "inactive"}
{"gene": "Pgm2b", "dsRNA": "DRSC05978", "stable assay Renilla, run 1": 6998, "stable assay firefly, run 1": 3.68e5, "activity call": "inactive"}
{"gene": "RhoGAP15B", "dsRNA": "DRSC19924", "stable assay Renilla, run 1": 8062, "stable assay firefly, run 1": 4.69e5, "activity call": "inactive"}
{"gene": "RhoGAP15B", "dsRNA": "DRSC19925", "stable assay Renilla, run 1": 4347, "stable assay firefly, run 1": 3.21e5, "activity call": "inactive"}
{"gene": "Ugt37D1", "dsRNA": "DRSC02645", "stable assay Renilla, run 1": 7566, "stable assay firefly, run 1": 4.01e5, "activity call": "inactive"}
{"gene": "djl", "dsRNA": "DRSC12578", "stable assay Renilla, run 1": 7028, "stable assay firefly, run 1": 3.90e5, "activity call": "inactive"}
{"gene": "lmd", "dsRNA": "DRSC15618", "stable assay Renilla, run 1": 8578, "stable assay firefly, run 1": 3.62e5, "activity call": "inactive"}
{"gene": "CG13674", "dsRNA": "DRSC10033", "stable assay Renilla, run 1": 7579, "stable assay firefly, run 1": 4.89e5, "activity call": "inactive"}
{"gene": "CG32628 (retired record)", "dsRNA": "DRSC19405", "stable siRNA reporter change": "reporter ratio raised past the hit cutoff", "stable assay Renilla, run 1": 2808, "stable assay firefly, run 1": 77057, "activity call": "inactive"}
{"gene": "Fkbp12", "dsRNA": "DRSC07425", "stable assay Renilla, run 1": 6226, "stable assay firefly, run 1": 3.72e5, "activity call": "inactive"}
{"gene": "Gr22e", "dsRNA": "DRSC20912", "stable assay Renilla, run 1": 5320, "stable assay firefly, run 1": 4.26e5, "activity call": "inactive"}
{"gene": "Ir84a", "dsRNA": "DRSC12510", "stable assay Renilla, run 1": 7370, "stable assay firefly, run 1": 5.00e5, "activity call": "inactive"}
{"gene": "Ir94g", "dsRNA": "DRSC15231", "stable assay Renilla, run 1": 6532, "stable assay firefly, run 1": 2.70e5, "activity call": "inactive"}
{"gene": "CG9899", "dsRNA": "DRSC04597", "stable assay Renilla, run 1": 5056, "stable assay firefly, run 1": 3.31e5, "activity call": "inactive"}
{"gene": "RpS10a", "dsRNA": "DRSC14161", "stable assay Renilla, run 1": 7195, "stable assay firefly, run 1": 3.87e5, "activity call": "inactive"}
{"gene": "CTCF", "dsRNA": "DRSC11004", "stable assay Renilla, run 1": 8367, "stable assay firefly, run 1": 3.93e5, "activity call": "inactive"}
{"gene": "prtp", "dsRNA": "DRSC19804", "stable assay Renilla, run 1": 3696, "stable assay firefly, run 1": 3.61e5, "activity call": "inactive"}
{"gene": "prtp", "dsRNA": "DRSC22494", "stable assay Renilla, run 1": 2859, "stable assay firefly, run 1": 3.45e5, "activity call": "inactive"}
{"gene": "Kyat", "dsRNA": "DRSC16147", "stable assay Renilla, run 1": 6270, "stable assay firefly, run 1": 3.82e5, "activity call": "inactive"}
{"gene": "ERR", "dsRNA": "DRSC10840", "stable assay Renilla, run 1": 8271, "stable assay firefly, run 1": 4.18e5, "activity call": "inactive"}
{"gene": "CG1075 (retired record)", "dsRNA": "DRSC12144", "stable assay Renilla, run 1": 6246, "stable assay firefly, run 1": 3.65e5, "activity call": "inactive"}
{"gene": "CG16779", "dsRNA": "DRSC15153", "stable assay Renilla, run 1": 5628, "stable assay firefly, run 1": 3.33e5, "activity call": "inactive"}
{"gene": "CG17744", "dsRNA": "DRSC10286", "stable assay Renilla, run 1": 5782, "stable assay firefly, run 1": 3.57e5, "activity call": "inactive"}
{"gene": "Larp4B", "dsRNA": "DRSC08192", "stable assay Renilla, run 1": 4136, "stable assay firefly, run 1": 1.74e5, "activity call": "inactive"}
{"gene": "Larp4B", "dsRNA": "DRSC23201", "stable assay Renilla, run 1": 2239, "stable assay firefly, run 1": 2.10e5, "activity call": "inactive"}
{"gene": "CG1246", "dsRNA": "DRSC08275", "stable assay Renilla, run 1": 6666, "stable assay firefly, run 1": 3.55e5, "activity call": "inactive"}
{"gene": "CG31231", "dsRNA": "DRSC13308", "stable assay Renilla, run 1": 4704, "stable assay firefly, run 1": 3.68e5, "activity call": "inactive"}

2 entries from above, arranged by “stable assay firefly, run 1”, lowest first.
{"gene": "CG9899", "dsRNA": "DRSC04597", "stable assay Renilla, run 1": 5056, "stable assay firefly, run 1": 3.31e5, "activity call": "inactive"}
{"gene": "RpS10a", "dsRNA": "DRSC14161", "stable assay Renilla, run 1": 7195, "stable assay firefly, run 1": 3.87e5, "activity call": "inactive"}
